The text below walks through data of PubChem BioAssay AID1347426 (Functional Genomics Laboratory (NCATS/FGL), 2020).

The whole screen tested about 31,000 sequences, of which about 1,400 (4.5%) were called active.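 Rule for the calls: active = median seed-adjusted z-score above 1 or below -1; inactive = the rest.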 Some of the results follow.

A short description of the assay: Novel Modifiers of Survival Motor Neuron (SMN) Protein: Gene Identification via Genome-wide siRNA Screen.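 Note: luminescence tracks full-length SMN protein made from the SMN2 reporter.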 To be noted: HEK293T SMN2-luciferase reporter, siRNA knockdown, 72 h; actives lie on both sides. A digest of the protocol:
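HEK293T cells stably carrying an SMN2 promoter/splicing cassette–luciferase reporter were reverse-transfected with 1 pmol siRNA per well (druggable-genome library, 3 siRNAs per gene) and grown 72 h at 37 °C. Luminescence, normalized to negative-control siRNA and log10-transformed, was scored as MAD.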
For orientation: A reporter such as luciferase makes a cellular process visible.
For CAGCUUGUUUUGAGACUCATT against GFI1B, the median seed-adjusted z-score is inactive: 0.154. GGUCAAUGGUGGAAGUUGUTT against PORCN: the median seed-adjusted z-score is inactive: 0.214. Consider ACAGCUGCGUGGAUCCCUUTT against F2RL3, for which the median seed-adjusted z-score is inactive: 0.133. With GGGCGAUUCCUGUCUAAGATT against PUM1, the median seed-adjusted z-score is inactive: 0.109. In the case of GAAUAUGAGUACCUAGAUUTT against SELPLG it was inactive: 0.0378.

On to CAAGCGACAUUGAAGAGUUTT against TYRO3, for which the median seed-adjusted z-score is inactive: -0.0161.

In the case of GCCUUAUGUAUGCACAGAATT against HKR1, the median seed-adjusted z-score was inactive: -0.358.

For the sequence CUAUGUCAGUAAAUGAUAUTT against DNAJB4, the median seed-adjusted z-score was inactive: -0.12. Take GGGACACCUCCAUUACUCATT against DAPK1: the median seed-adjusted z-score was inactive: 0.27. GGAACGUGCGAAGUCUAAATT against ACIN1: the median seed-adjusted z-score was inactive: -0.674.

With CUGAGACACUCAACAAGUATT against IL8RA, the median seed-adjusted z-score is inactive: 0.316. In the case of UCAUCAUGCUUAUCGUGGATT against SLC6A20, the median seed-adjusted z-score is inactive: -0.306.

Regarding GCACGGACCAUGAACUUCATT against GRIN1, the median seed-adjusted z-score is inactive: -0.137. In the case of GCUGCUACAGAUUUAUCAATT against CCL7, the median seed-adjusted z-score was inactive: 0.23.

On to CCAUUGGAUUCACUAUGUATT against GRM7, for which the median seed-adjusted z-score is inactive: 0.389. GUCCUAUACUUUGCACAAUTT against PHF11: the median seed-adjusted z-score was inactive: 0.174. Under CCUAGAAACGAGUUCCAAATT against LIPJ stands inactive: 0.295; under CCACUGCUAAGAAAACCAATT against SLC2A10, inactive: -0.0407. With AGCCCGUGAUGUACACGUATT against COL8A1, the median seed-adjusted z-score is inactive: -0.848. As to GGUUCUAACUACCUCCAGATT against KRT5, the median seed-adjusted z-score was inactive: -0.325. Under GGAGUGUGAUGAUUCGUGATT against DGKK stands inactive: 0; under GCAUUGAUGAUUUCCGAGATT against PPP1R16A, inactive: 0.322; under GUGUAAAACUUGUCAGCGATT against WT1, inactive: 0.236.

As for CGAGACUACUAAAGAAACATT against DDX18, the median seed-adjusted z-score was inactive: 0.241. Turning to CCUUCAAUCAAAAGCCUUATT against DUXA, the median seed-adjusted z-score is inactive: 0. As to GAAGGUCCUGAACAGUUUATT against ZFAT, the median seed-adjusted z-score is inactive: -0.183.

GCGAUGAUGUGGAACCUUATT against TBC1D9: the median seed-adjusted z-score was inactive: -0.0473.

For the sequence GGACGGCUUUCUGCAAAGATT against GLRA2, the median seed-adjusted z-score was inactive: -0.927. With GGAUGAUAUUCUAUCCUUUTT against IPO13, the median seed-adjusted z-score was inactive: 0.612. For the sequence GGAAAGAAGGCAUAUAAAUTT against ZNF260, the median seed-adjusted z-score was inactive: -0.682. With GAGGUACGCUGGUUCUACATT against DDHD1, the median seed-adjusted z-score was inactive: 0. Consider CUUCAUGCAUUUUACGAAATT against POLA1, for which the median seed-adjusted z-score was inactive: -0.317. In the case of GAGCGGUACCGGAAGUUUATT against JMJD1B it was inactive: 0.402; in that of GACUAGGAAUAAUAGUAUUTT against RNF166, inactive: -0.3; in that of GGACACGGGUGUCAUCCUATT against UBASH3A, active: -1.1. Consider CGAUGUGAAUUACUUAGUUTT against EDNRA, for which the median seed-adjusted z-score was inactive: 0.133. Regarding CCACCUUCGAUGUUCCCAUTT against HMG20B, the median seed-adjusted z-score was inactive: 0.231. For CCUGAGCAUUUGGACAAUATT against SALL1, the median seed-adjusted z-score is inactive: -0.526. CUAGACCUUUCAUUAGAUATT against USP3: the median seed-adjusted z-score is inactive: -0.176. As to GGUCAGAAGUGGCAAUGAATT against FFAR2, the median seed-adjusted z-score was inactive: 0.146. With GCAGAUGACUACAACUUUATT against E2F5, the median seed-adjusted z-score was inactive: -0.628.

GGCAGUUUUUGAGCCGGAATT against CENTA1: the median seed-adjusted z-score was inactive: -0.555. For GAUAGACAUUAGUCCGGUUTT against MRE11A, the median seed-adjusted z-score is inactive: 0.0507. On to GAAGUGUACUGCAAUCCAATT against OFD1, for which the median seed-adjusted z-score was inactive: 0. Under CAAAGCGGAUGGUUACCAATT against YME1L1 stands inactive: 0.131; under GCUCCUAGGUCAGACCAGATT against NPPA, inactive: -0.897. Turning to CAGUGUUCGUCAAAGUCAATT against FN3K, the median seed-adjusted z-score is inactive: -0.508. As for GAUCCUGGCUAAGAGGGAATT against PPP1R14D, the median seed-adjusted z-score was inactive: 0. Take GCCUGUCCCACUUUGAGUATT against TNK2: the median seed-adjusted z-score was inactive: -0.574. As to GGAAGAAGCUCUUCGGAAATT against PAPD5, the median seed-adjusted z-score is inactive: 0.325.

Consider GAUAAACGCAGGGCACAAATT against KCND3, for which the median seed-adjusted z-score is inactive: 0.282. Under GCACAGAUGAAGCCCGCUUTT against ARL11 stands active: 1; under GGAUCGAUUUUUACAGGUUTT against CCNB2, inactive: 0.0328; under GUAUAUGACUGUACACUCATT against AGPAT4, inactive: 0.149. As to AGACUAUGCUCAUCACCGATT against HNF1A, the median seed-adjusted z-score was inactive: -0.436. In the case of CAACCGGACAAGUUCCAAATT against PHF21A it was inactive: 0.179. For the sequence GUGUGAUGAUAUUCGAAAATT against SGPP1, the median seed-adjusted z-score is inactive: 0.0859. In the case of CUGCGGUUACUUAAACAUATT against MAPK14, the median seed-adjusted z-score is inactive: 0.142. On to GGACCGGAUGUUAACCUUUTT against MAPK3, for which the median seed-adjusted z-score is inactive: -0.573.

For UCCUGACCGUGACCUUUGATT against PRDM15, the median seed-adjusted z-score was inactive: 0.258. Under GCAGUGUUCUCCAUACUAUTT against SLC39A2 stands inactive: 0.0602; under CCGUAUCCCUUGAUACUGATT against PLA2G4A, inactive: 0.608; under CCAACUGCAUGAAGUAUAATT against BRPF3, inactive: -0.615.

GGCCUAUAAUGAAUACCCUTT against GLRA1: the median seed-adjusted z-score was inactive: 0. With CAUUUAAGCCUUUAGUGAATT against PRKAG2, the median seed-adjusted z-score was inactive: -0.367. In the case of GCAGAGGAGUUUACCUACATT against HAGH, the median seed-adjusted z-score is inactive: 0.647. On to CAUUGAGACCUAUCUGCUATT against MYH11, for which the median seed-adjusted z-score is inactive: 0.

As for CGUCUAUGCAUAUCCUAGATT against RBM15B, the median seed-adjusted z-score is inactive: -0.183. Regarding CACGUACUCUGGAUGCACATT against MED25, the median seed-adjusted z-score was inactive: -0.589.
